According to the supplement of paper PMC10689618:
The list shows a part of the results. Many values rest on one well or one pass, so single values are uncertain.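 Labelled rat cortical synaptosomes were engulfed by primary human fetal astrocytes. Engulfment equaled a red/green ratio, corrected for calcein live-cell signal and normalized to the plate median. Compounds were toxic when calcein dropped over 30%, and reduced phagocytosis when below 70% of the median above 5 µM.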

What was measured:
Human fetal astrocytes [1] = assay: loss of total cells relative to no-compound high-control median (toxicity); higher = more toxic (fewer cells); details: 24 h
Human fetal astrocytes [2] = assay: synaptosome phagocytosis (pHrodo/calcein intensity ratio) relative to plate median of data wells; higher = more phagocytosis; details: 24 h

Compound	loss of total cells (Human fetal astrocytes [1]; 1.39 µM) [%]	loss of total cells (Human fetal astrocytes [1]; 2.78 µM) [%]	loss of total cells (Human fetal astrocytes [1]; 5.56 µM) [%]	loss of total cells (Human fetal astrocytes [1]; 11.11 µM) [%]	loss of total cells (Human fetal astrocytes [1]; 22.22 µM) [%]	synaptosome phagocytosis (Human fetal astrocytes [2]; 1.39 µM) [%]	synaptosome phagocytosis (Human fetal astrocytes [2]; 2.78 µM) [%]	synaptosome phagocytosis (Human fetal astrocytes [2]; 5.56 µM) [%]	synaptosome phagocytosis (Human fetal astrocytes [2]; 11.11 µM) [%]	synaptosome phagocytosis (Human fetal astrocytes [2]; 22.22 µM) [%]
OC[C@H]1O[C@@H](n2cnc3c(NCc4ccco4)ncnc32)[C@H](O)[C@@H]1O	-11.5	-9.7	11	29.1	25.2	111	126	95.5	104	76.6
CC1=CC(=O)c2ccccc2C1=O	-25	-11.1	1.9	52.8	28.3	112	90.4	101	116	96.2
CCCCCC(=O)Cc1cc(O)cc(O)c1C(=O)Oc1cc(CC(=O)CCCCC)c(C(=O)O)c(OC)c1	27.2	2	-18.3	48.4	6.3	149	112	92.1	147	113
COc1ccc([C@@H]2CC(=O)c3c(O)cc(O)cc3O2)cc1O	-12.3	-4.7	-5.1	2.7	10.4	85.4	86.1	105	110	104
O=C1OCCN1/N=C/c1ccc([N+](=O)[O-])o1	9.2	-18	7	-13	27.7	100	90.1	113	94.1	91.6
CC(=O)OCC(=O)[C@@]1(O)CC[C@H]2[C@@H]3CCC4=CC(=O)CC[C@]4(C)[C@H]3C(=O)C[C@@]21C	-5.6	-26.8	-24.4	-8.4	-8.2	125	119	149	90.7	100
C1CCC(C(CC2CCCCN2)C2CCCCC2)CC1 (stereo not given)	-39.5	36.5	36.6	42.3	37.1	42.8	54.6	19.2	0	11.8
CN(Cc1cc(Br)cc(Br)c1N)C1CCCCC1	-21.8	-26.2	0	22.6	12.1	95.6	116	113	117	80.9
COc1cc(C)c(C(=O)O)c(O)c1	1.8	8	28.2	-0.6	10.7	88.2	86.9	93.7	90.5	121
COc1c(-c2coc3cc4c(cc3c2=O)CC(O)C(C)(C)O4)ccc2c1C=CC(C)(C)O2 (stereo not given)	-32.2	4.7	27.5	25.2	40.4	81.3	108	112	86.7	75.7
O=C(/C=C/C=C/c1ccc2c(c1)OCO2)N1CCCCC1	-15.1	0.3	-11.1	-0.3	-6.4	79.1	93.7	85.3	101	98.3
C=CC[C@@H]1/C=C(\C)C[C@H](C)C[C@H](OC)[C@H]2O[C@@](O)(C(=O)C(=O)N3CCCC[C@H]3C(=O)O[C@H](/C(C)=C/[C@@H]3CC[C@@H](O)[C@H](OC)C3)[C@H](C)[C@@H](O)CC1=O)[C@H](C)C[C@@H]2OC	-37.1	23.8	11.8	36.4	14	79.3	126	106	119	100
CN(Cc1cnc2nc(N)nc(N)c2n1)c1ccc(C(=O)NC(CCC(=O)O)C(=O)O)cc1 (stereo not given)	-4.1	-9.5	0.3	14.1	13	91.7	85.2	82.3	56.4	89.6
CCCCCCCCCCCCCCCCCCCCCCO	19.2	-8	-18.3	24.5	-3.3	144	96.7	112	113	121
C/C=C(/C(=C/C)c1ccc(O)cc1)c1ccc(O)cc1	10.4	-16.6	-24.4	4.9	-20.4	84.2	101	114	63.6	97.2
COc1ccc2oc3ccccc3c(=O)c2c1	6.9	8.3	5.8	-7.9	5.3	100	95.4	100	129	102
COc1cc(NC(C)CCCN)c2ncccc2c1 (stereo not given)	-11.6	-8.5	-6.3	2.6	61.1	79.4	66.9	39.4	32.7	14.4
COc1ccc2c(c1)[C@@]1(C)CC[C@@H](O)C[C@@H]1CC2 [12-METHOXY-4,4-BISNOR-5alpha-8,11,13-PODOCARPATRIEN-3-OL]	-1.8	-2.7	18.3	16.8	16.7	97.2	131	122	111	125
COc1ccccc1OCC(O)CO (stereo not given)	-20.5	-18.6	-36.2	-10.7	38	103	128	111	124	126
CC1(C)[C@@H](O)CC[C@]2(C)[C@H]3C(=O)C=C4[C@H]5C[C@@](C)(C(=O)O)CC[C@]5(C)CC[C@@]4(C)[C@]3(C)CC[C@@H]12 [18alpha-GLYCYRRHETINIC ACID]	-9	-10.5	-6.6	-3.4	16.3	124	91.4	111	84.8	126

Compound	loss of total cells (Human fetal astrocytes [1]; 1.39 µM) [%]	loss of total cells (Human fetal astrocytes [1]; 2.78 µM) [%]	loss of total cells (Human fetal astrocytes [1]; 5.56 µM) [%]	loss of total cells (Human fetal astrocytes [1]; 11.11 µM) [%]	loss of total cells (Human fetal astrocytes [1]; 22.22 µM) [%]	synaptosome phagocytosis (Human fetal astrocytes [2]; 1.39 µM) [%]	synaptosome phagocytosis (Human fetal astrocytes [2]; 2.78 µM) [%]	synaptosome phagocytosis (Human fetal astrocytes [2]; 5.56 µM) [%]	synaptosome phagocytosis (Human fetal astrocytes [2]; 11.11 µM) [%]	synaptosome phagocytosis (Human fetal astrocytes [2]; 22.22 µM) [%]
O=C(O)C1=C(CSc2nnnn2CS(=O)(=O)O)CS[C@@H]2[C@H](NC(=O)[C@H](O)c3ccccc3)C(=O)N12	-17.7	-22.2	-16.8	-1.6	9	102	110	103	101	138
CC(=O)OCC(=O)[C@H]1CC[C@H]2[C@@H]3CCC4=CC(=O)CC[C@]4(C)[C@H]3CC[C@]12C	-15.8	-7	2.1	-25	-4.5	107	96.6	107	129	108
Cn1c2ncnc-2c(O)n(C)c1=O	-13.4	6.1	-6.5	-0.4	4.5	73.9	116	74.6	106	106
O=C(Oc1ccccc1C(=O)O)c1ccccc1O	5	-18.6	6.9	-15.6	14.7	111	124	101	132	106
CCC[C@@H]1C[C@@H](C(=O)N[C@@H]([C@H]2O[C@H](SC)[C@H](O)[C@@H](O)[C@H]2O)[C@@H](C)O)N(C)C1	-13.4	-11.9	-24.4	-3.7	-26.4	88.2	94.8	72.8	89.3	95.3
CC(O)Cn1cnc2c1c(=O)n(C)c(=O)n2C (stereo not given)	18.4	15.5	8.7	10.5	15.2	151	120	131	98.5	103
CCCCCCNC(=O)n1cc(F)c(=O)[nH]c1=O	7.6	11.9	15.2	14.6	0	83.3	112	138	130	102
CCCCCCCCCCCCCCC(C(=O)O)C(O)(CC(=O)OC)C(=O)O (stereo not given)	36.6	6.6	-10.7	46.5	21.1	137	112	91	118	110
C1CCN2C[C@@H]3C[C@H](CN4CCCC[C@@H]34)[C@H]2C1	-11.5	-1.1	-9.5	5.4	0	132	134	118	87.5	95.5
CCCCCCCCCCCCCCCC(=O)O[C@@H]1[C@@H](O)[C@@H](O)[C@@H]([C@H](NC(=O)[C@@H]2C[C@@H](CCC)CN2C)[C@H](C)Cl)O[C@@H]1SC	-45.2	-34.1	-5.6	-16.7	-9.7	82.2	112	115	68.2	118
COC(=O)Nc1nc2cc([S+]([O-])c3ccccc3)ccc2[nH]1 (stereo not given)	-25	0.8	-1.2	31.1	-11.5	109	114	98.8	124	106
CC(=O)OCC(=O)[C@@]1(O)CC[C@H]2[C@@H]3CCC4=CC(=O)C=C[C@]4(C)[C@H]3[C@@H](O)C[C@@]21C	-15.1	-30.8	-18.1	-22.2	30.7	82.9	94	84	124	123
COc1ccc(/C=C/C(=O)c2ccc(O)cc2O)cc1	-24.6	-8.3	0	13.5	-0.7	100	89.6	112	133	98.8
N#Cc1ccc2c(c1)N(CCCN1CCC(O)CC1)c1ccccc1S2	6.1	19.9	0	6.3	14.4	115	100	56.5	112	124
C[n+]1ccccc1/C=N/O	27.4	-26.2	9.9	-10.8	10.3	156	96	116	85.1	134
NC(Cc1ccc(F)cc1)C(=O)O (stereo not given)	-5.4	6.1	24.6	-16.3	18.9	75	106	136	121	104
CCN(CC)CCOCCOC(=O)C1(c2ccccc2)CCCC1	-26.6	-11.9	-15.3	-5.5	2.8	90.7	58.2	83.2	72.7	84.3
C=C1c2c(Cl)ccc(O)c2C(O)=C2C(=O)[C@]3(O)C(O)=C(C(N)=O)C(=O)[C@@H](N(C)C)[C@@H]3[C@@H](O)[C@H]12.O=C(O)c1cc(S(=O)(=O)O)ccc1O	-19.1	-5.8	-2.1	23.4	9.1	120	105	104	89	108
Clc1ccc(COC(Cn2ccnc2)c2ccc(Cl)cc2Cl)cc1 (stereo not given)	-0.8	-0.9	9.3	68.8	98.6	106	118	104	43.4	0
CC(=O)O[C@@H]1C=C[C@]2(C)C(C[C@@H](OC(C)=O)[C@]3(C)C4=CC(=O)O[C@H](c5ccoc5)[C@@]4(C)CCC23)C1(C)C (stereo not given in full)	-4.7	10.5	5.8	-5.4	12.1	81.8	113	83.4	100	60.1

Some of the entries so far, as comma-separated lines:
Compound,loss of total cells (Human fetal astrocytes [1]; 1.39 µM) [%],loss of total cells (Human fetal astrocytes [1]; 2.78 µM) [%],loss of total cells (Human fetal astrocytes [1]; 5.56 µM) [%],loss of total cells (Human fetal astrocytes [1]; 11.11 µM) [%],loss of total cells (Human fetal astrocytes [1]; 22.22 µM) [%],synaptosome phagocytosis (Human fetal astrocytes [2]; 1.39 µM) [%],synaptosome phagocytosis (Human fetal astrocytes [2]; 2.78 µM) [%],synaptosome phagocytosis (Human fetal astrocytes [2]; 5.56 µM) [%],synaptosome phagocytosis (Human fetal astrocytes [2]; 11.11 µM) [%],synaptosome phagocytosis (Human fetal astrocytes [2]; 22.22 µM) [%]
CC(=O)OCC(=O)[C@H]1CC[C@H]2[C@@H]3CCC4=CC(=O)CC[C@]4(C)[C@H]3CC[C@]12C,-15.8,-7,2.1,-25,-4.5,107,96.6,107,129,108
Cn1c2ncnc-2c(O)n(C)c1=O,-13.4,6.1,-6.5,-0.4,4.5,73.9,116,74.6,106,106
O=C(Oc1ccccc1C(=O)O)c1ccccc1O,5,-18.6,6.9,-15.6,14.7,111,124,101,132,106
CCC[C@@H]1C[C@@H](C(=O)N[C@@H]([C@H]2O[C@H](SC)[C@H](O)[C@@H](O)[C@H]2O)[C@@H](C)O)N(C)C1,-13.4,-11.9,-24.4,-3.7,-26.4,88.2,94.8,72.8,89.3,95.3
CC(O)Cn1cnc2c1c(=O)n(C)c(=O)n2C (stereo not given),18.4,15.5,8.7,10.5,15.2,151,120,131,98.5,103
CCCCCCNC(=O)n1cc(F)c(=O)[nH]c1=O,7.6,11.9,15.2,14.6,0,83.3,112,138,130,102
CCCCCCCCCCCCCCC(C(=O)O)C(O)(CC(=O)OC)C(=O)O (stereo not given),36.6,6.6,-10.7,46.5,21.1,137,112,91,118,110
C1CCN2C[C@@H]3C[C@H](CN4CCCC[C@@H]34)[C@H]2C1,-11.5,-1.1,-9.5,5.4,0,132,134,118,87.5,95.5
CCCCCCCCCCCCCCCC(=O)O[C@@H]1[C@@H](O)[C@@H](O)[C@@H]([C@H](NC(=O)[C@@H]2C[C@@H](CCC)CN2C)[C@H](C)Cl)O[C@@H]1SC,-45.2,-34.1,-5.6,-16.7,-9.7,82.2,112,115,68.2,118
COC(=O)Nc1nc2cc([S+]([O-])c3ccccc3)ccc2[nH]1 (stereo not given),-25,0.8,-1.2,31.1,-11.5,109,114,98.8,124,106
CC(=O)OCC(=O)[C@@]1(O)CC[C@H]2[C@@H]3CCC4=CC(=O)C=C[C@]4(C)[C@H]3[C@@H](O)C[C@@]21C,-15.1,-30.8,-18.1,-22.2,30.7,82.9,94,84,124,123
